The source gives many values for each of these; only a part stands here.
Tested on: colon gene expression
Test: RNA-Seq of colonic tissue of germ-free mice treated with 50 mg/kg/d N-methylserotonin
Assay type: in vivo, germ-free C57BL/6J mice
Settings: colon

Question: Which results are given for CNCCc1c[nH]c2ccc(O)cc12 [N-methylserotonin]?
Answer: log2 fold-change (gene 2210416O15Rik): 0.48; log2 fold-change (gene 2610528A11Rik): −0.48; log2 fold-change (gene 5730409E04Rik): 0.73; log2 fold-change (gene 9030619P08Rik): −0.13; log2 fold-change (gene 9530002B09Rik): 9.07; log2 fold-change (gene 9530003J23Rik): 7.07; log2 fold-change (gene 9530053A07Rik): 10.44; log2 fold-change (gene A4gnt): 0.36; log2 fold-change (gene AA467197): −0.50; log2 fold-change (gene AW112010): −0.52; log2 fold-change (gene Aadac): −0.51; log2 fold-change (gene Abat): −0.36; log2 fold-change (gene Abcg2): −0.50; log2 fold-change (gene Abcg5): −0.77; log2 fold-change (gene Acad11): −0.29; log2 fold-change (gene Acadsb): 0.46; log2 fold-change (gene Acbd4): 0.41; log2 fold-change (gene Acpp): −0.40; log2 fold-change (gene Acsm3): −0.55; log2 fold-change (gene Acta1): 1.78; log2 fold-change (gene Actr3): −0.22; log2 fold-change (gene Adarb2): 2.23; log2 fold-change (gene Adgra3): −0.25; log2 fold-change (gene Adgrg7): −0.34; log2 fold-change (gene Adh1): −0.77; log2 fold-change (gene Agpat4): −0.32; log2 fold-change (gene Aldh1l1): −0.68; log2 fold-change (gene Aldob): −0.54; log2 fold-change (gene Alox12): 2.13; log2 fold-change (gene Ang4): −0.54; log2 fold-change (gene Angptl2): 0.49; log2 fold-change (gene Ank): 0.30; log2 fold-change (gene Anxa3): −1.00; log2 fold-change (gene Aqp4): −0.67; log2 fold-change (gene Aqp8): −0.61; log2 fold-change (gene Ar): 1.20; log2 fold-change (gene Arap2): −0.29; log2 fold-change (gene Arhgap12): −0.28; log2 fold-change (gene Arhgap18): −0.28; log2 fold-change (gene Arhgef40): 0.36; log2 fold-change (gene Arntl): −1.01; log2 fold-change (gene Arrdc3): −0.38; log2 fold-change (gene Art3): 0.40; log2 fold-change (gene Atad2): −0.38; log2 fold-change (gene Atp11a): 0.46; log2 fold-change (gene Avl9): −0.29; log2 fold-change (gene B3galt5): −0.40; log2 fold-change (gene B3gnt5): −0.62; log2 fold-change (gene B3gnt7): −0.59; log2 fold-change (gene Baat): −1.69; log2 fold-change (gene Bcap31): −0.27; log2 fold-change (gene Bcas3): 0.38; log2 fold-change (gene Bhlhe41): 0.97; log2 fold-change (gene Bicdl1): 0.64; log2 fold-change (gene Bmpr1b): 3.17; log2 fold-change (gene Bmt2): −0.38; log2 fold-change (gene Bola3): −0.44; log2 fold-change (gene Brip1): −0.50; log2 fold-change (gene Bub1): −0.51; log2 fold-change (gene C1galt1): −0.27; log2 fold-change (gene C1rb): 7.69; log2 fold-change (gene C4bp): −0.74; log2 fold-change (gene COX1): −0.41; log2 fold-change (gene Cacna1c): 0.54; log2 fold-change (gene Cacna1h): 0.41; log2 fold-change (gene Cald1): 0.42; log2 fold-change (gene Camk2g): 0.40; log2 fold-change (gene Camkk1): 0.76; log2 fold-change (gene Capn13): −0.78; log2 fold-change (gene Car1): 0.44; log2 fold-change (gene Casd1): −0.48; log2 fold-change (gene Casp1): −0.35; log2 fold-change (gene Casp7): −0.38; log2 fold-change (gene Cbs): 0.33; log2 fold-change (gene Cbx5): −0.26; log2 fold-change (gene Ccbe1): 1.10; log2 fold-change (gene Ccdc8): 0.83; log2 fold-change (gene Ccdc116): 0.62; log2 fold-change (gene Ccl28): −0.55; log2 fold-change (gene Ccni): −0.28; log2 fold-change (gene Cd14): −0.44; log2 fold-change (gene Cd248): 0.77; log2 fold-change (gene Cdc42): −0.26; log2 fold-change (gene Cdh17): −0.29; log2 fold-change (gene Cdkn2b): −0.50; log2 fold-change (gene Cdo1): 1.77; log2 fold-change (gene Ceacam10): 5.61; log2 fold-change (gene Ceacam20): −0.56; log2 fold-change (gene Cela1): −0.68; log2 fold-change (gene Cept1): −0.36; log2 fold-change (gene Ces2a): −0.77; log2 fold-change (gene Ces3a): −1.12; log2 fold-change (gene Chordc1): −0.39; log2 fold-change (gene Chp2): −0.43; log2 fold-change (gene Chpt1): −0.27; log2 fold-change (gene Ciart): 1.10; log2 fold-change (gene Cic): 0.36; log2 fold-change (gene Ckmt1): −0.62; log2 fold-change (gene Ckmt2): −0.74; log2 fold-change (gene Clca1): −0.76; log2 fold-change (gene Clca3b): −0.37; log2 fold-change (gene Cldn1): 0.90; log2 fold-change (gene Clic5): −0.46; log2 fold-change (gene Clock): −0.35; log2 fold-change (gene Clrn3): −0.26; log2 fold-change (gene Clstn2): 1.12; log2 fold-change (gene Col4a6): 1.01; log2 fold-change (gene Col6a1): 0.35; log2 fold-change (gene Col8a2): 0.74; log2 fold-change (gene Col23a1): 0.53; log2 fold-change (gene Col27a1): 0.94; log2 fold-change (gene Cox5a): −0.35; log2 fold-change (gene Cpn1): 0.55; log2 fold-change (gene Cpq): −0.33; log2 fold-change (gene Cr2): −0.79; log2 fold-change (gene Crip2): 0.46; log2 fold-change (gene Crlf2): 0.72; log2 fold-change (gene Cry1): −0.46; log2 fold-change (gene Csrp1): 0.39; log2 fold-change (gene Ctnnb1): −0.23; log2 fold-change (gene Ctse): −0.85; log2 fold-change (gene Ctss): −0.40; log2 fold-change (gene Cul9): 0.49; log2 fold-change (gene Cux2): 1.61; log2 fold-change (gene Cxcl9): −0.14; log2 fold-change (gene Cxcl10): −0.13; log2 fold-change (gene Cxcl13): −0.49; log2 fold-change (gene Cyp2c68): −0.86; log2 fold-change (gene Cyp2c69): −0.56; log2 fold-change (gene Cyp2d10): −0.70; log2 fold-change (gene Cyp2d34): −0.36; log2 fold-change (gene Cyp4f16): −0.66; log2 fold-change (gene Cyp4f17): 0.91; log2 fold-change (gene D630003M21Rik): 0.74; log2 fold-change (gene D630045J12Rik): 0.96; log2 fold-change (gene D930048N14Rik): 1.02; log2 fold-change (gene Ddc): −0.64; log2 fold-change (gene Defb42): 6.02; log2 fold-change (gene Dek): −0.26; log2 fold-change (gene Dhrs7b): −0.35; log2 fold-change (gene Dhx32): −0.33; log2 fold-change (gene Dio1): −0.42; log2 fold-change (gene Dlgap5): −0.46; log2 fold-change (gene Dmxl1): −0.25; log2 fold-change (gene Dnajb1): −0.37; log2 fold-change (gene Doc2b): 1.05; log2 fold-change (gene Dram2): −0.27; log2 fold-change (gene Dstn): −0.26; log2 fold-change (gene Dtnb): 0.79; log2 fold-change (gene Dusp6): −0.64; log2 fold-change (gene Efr3a): −0.26; log2 fold-change (gene Efs): 0.99; log2 fold-change (gene Egf): 2.10; log2 fold-change (gene Elf5): 0.01; log2 fold-change (gene Elovl7): −0.40; log2 fold-change (gene Eml1): 0.35; log2 fold-change (gene Enah): 0.50; log2 fold-change (gene Eno3): −1.06; log2 fold-change (gene Epb41l4b): −0.25; log2 fold-change (gene Epcam): −0.25; log2 fold-change (gene Epn3): 0.42
